According to paper PMC10569044, “Methylation and Demethylation of Emerging Contaminants Changed Bioaccumulation and Acute Toxicity in Daphnia magna” (Environmental Science & Technology, 2023):
Values after ≈ are worked out from the molar mass of the structure shown.

Experiments:
[1] = in vivo; settings: Daphnia magna
Method: Preliminary tests were conducted for each target compound at widely spaced concentrations to identify the concentration range for deriving an accurate dose–response curve. The stock solutions of individual test compounds were prepared in methanol and diluted with 10 mL of aerated AFW to different concentrations in 20 mL glass vials. The methanol volume was set to 100 μL in each vial as the solvent carrier, and a control group containing 100 μL of methanol without the target compound was used as the carrier solvent control. Each test included at least five concentration levels, and the concentrations of test compounds in the medium were experimentally measured (SI, Table S1). Each treatment included four replicates. […] The obtained dose–response data were fitted to the Boltzmann equation:[24] [drawing 1] 1 where C is the measured concentration of the test compound.

[2] = tested on: D. magna

SMILES | LC50 at 48 h [1] | ku (uptake rate constant) ([2]; D. magna, 24 h uptake phase) | concentration in D. magna ([2]; end of uptake phase, 24 h, 1 mg L^–1 nominal) | LC50 at 48 h ([1]; other: waterborne exposure in the test medium)
CN1C(=O)CN=C(c2ccccc2)c2cc(Cl)ccc21 [diazepam, reference compound] | 3 ± 0.3 µg/mL (≈ 10.5 µM) | 68.3 ± 5 mL/min/kg | 7599.7 ± 1470.3 ng g^–1 (w.w.) | –
COc1ccc2cc([C@H](C)C(=O)O)ccc2c1 [naproxen, reference compound] | – | – | – | 32.1 ± 4.9 µg/mL (≈ 139 µM)
